Reference: PubChem BioAssay AID504791 (Drosophila RNAi Screening Center, 2011)
Screen: 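Factors in Argonaute-based small RNA production and activity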 (primary screen). System: Drosophila S2-derived reporter cells. Reagents: long dsRNA against Drosophila genes, about 150-250 ng dsRNA per well (siRNA assay); about 80-120 ng (miRNA assay). Time to read-out: about 5 days (siRNA assay); about 4 days (miRNA assay). Treatment: copper sulfate induction of reporters: 25 µM (siRNA assay); 200 mM stated (miRNA assay), 1-2 days before reading. Measurement: 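Per-well ratio of Renilla over firefly light, expressed relative to that plate's average ratio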. Rule for the call: 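First-pass picks had plate-scaled ratios over 1.5 for the siRNA assay, over 1.6 for the miRNA assay, or under 0.6; two distinct dsRNAs had to score alike on retest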.
The screen tested about 23,000 reagents; below is a random part of those with a known target gene and a result. Of all reagents, 199 (0.86%) got an active call. 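Plate-scaled ratios behind the calls are not deposited; printed light signals are raw; many rows marked increased or decreased are still called inactive.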 Unmarked entries are inactive. Not given: the direction of the score.

| stable siRNA reporter change | miRNA reporter change | stable assay Renilla, run 1 (luminescence) | stable assay firefly, run 1 (luminescence) | Target gene | dsRNA |
| --- | --- | --- | --- | --- | --- |
| – | – | 7214 | 4.92e5 | firl | DRSC02428 |
| – | – | 6667 | 3.73e5 | Tti1 | DRSC15163 |
| – | – | 7318 | 3.65e5 | lobo | DRSC14662 |
| – | – | 6023 | 2.83e5 | lobo | DRSC14663 |
| – | – | 7378 | 3.46e5 | Pgant7 | DRSC19991 |
| – | – | 4532 | 4.28e5 | p-cup | DRSC19513 |
| – | – | 7026 | 3.60e5 | Ppm1 | DRSC08260 |
| – | – | 33231 | 6.88e5 | grk | DRSC03540 |
| – | – | 8347 | 4.91e5 | CG1607 | DRSC15130 |
| – | – | 5420 | 4.14e5 | CG32110 | DRSC09220 |
| – | – | 6688 | 3.72e5 | CG17321 | DRSC02598 |
| – | – | 13697 | 4.71e5 | Nprl3 | DRSC11044 |
| – | – | 5919 | 3.66e5 | Tim13 | DRSC09848 |
| – | – | 7136 | 4.84e5 | CG14500 | DRSC06471 |
| – | reporter ratio lowered past the hit cutoff | 9484 | 5.27e5 | CG13738 | DRSC10065 |
| – | – | 6351 | 4.20e5 | CG14657 | DRSC12219 |
| – | – | 7930 | 5.71e5 | CG14657 | DRSC12243 |
| – | – | 6586 | 4.32e5 | mei-P22 | DRSC11366 |
| – | – | 8857 | 3.39e5 | Adss | DRSC14162 |
| – | – | 6430 | 3.84e5 | Obp83cd | DRSC12267 |
| – | – | 6283 | 4.16e5 | CG17959 | DRSC18142 |
| – | – | 10458 | 3.82e5 | CG13630 | DRSC14631 |
| – | – | 18777 | 1.28e6 | NimB1 | DRSC01880 |
| – | – | 9377 | 3.61e5 | CG15093 | DRSC06522 |
| – | – | 7867 | 4.87e5 | His3.3A | DRSC03343 |
| – | – | 6607 | 4.47e5 | CG11262 | DRSC09831 |
| – | – | 7603 | 3.56e5 | l(3)07882 | DRSC15882 |
| – | – | 6875 | 3.26e5 | CG15071 | DRSC06504 |
| – | – | 12351 | 4.97e5 | botv | DRSC05949 |
| – | – | 5890 | 3.36e5 | Targ | DRSC06206 |
| – | – | 28044 | 2.39e5 | CG17264 | DRSC00500 |
| – | – | 8062 | 4.01e5 | Vps60 | DRSC10610 |
| – | – | 5534 | 3.45e5 | CG15308 | DRSC17995 |
| – | – | 6703 | 3.26e5 | side-IV | DRSC14833 |
| – | – | 4668 | 4.98e5 | CG9302 | DRSC03191 |
| – | – | 5612 | 3.54e5 | CG13575 | DRSC04211 |
| – | – | 4536 | 4.17e5 | CG13575 | DRSC22851 |
| – | – | 6122 | 4.49e5 | Srp9 | DRSC10973 |
| – | – | 5886 | 4.45e5 | CG18746 | DRSC15383 |
| – | – | 7991 | 3.84e5 | CG8569 | DRSC07214 |
| – | – | 6939 | 5.31e5 | CG13813 | DRSC10068 |
| reporter ratio lowered past the hit cutoff (active) | – | 4987 | 5.15e5 | eIF5 | DRSC20165 |
| – | – | 8074 | 3.88e5 | Mf | DRSC16120 |
| – | – | 6224 | 5.27e5 | Aduk | DRSC16451 |
| – | – | 6856 | 5.51e5 | Fas3 | DRSC01638 |
| – | – | 7291 | 4.89e5 | Fas3 | DRSC03326 |
| – | – | 3888 | 3.25e5 | Fas3 | DRSC22776 |
| reporter ratio raised past the hit cutoff (active) | – | 21637 | 3.94e5 | CG4294 | DRSC04460 |
| – | – | 5760 | 3.16e5 | CG8388 | DRSC07157 |
| – | – | 5028 | 4.01e5 | bcn92 | DRSC18741 |
| – | – | 6516 | 3.62e5 | CG18530 | DRSC15341 |
| – | – | 5232 | 2.87e5 | CG14439 | DRSC17931 |
| – | – | 51248 | 1.60e6 | CG33140 | DRSC06030 |
| – | – | 9535 | 5.86e5 | Sptr | DRSC18719 |
| – | – | 10834 | 3.98e5 | Rbbp5 | DRSC11778 |
| – | – | 11035 | 4.50e5 | PQBP1 | DRSC14393 |
| – | – | 8418 | 4.63e5 | CG7460 | DRSC10850 |

A run of entries of the results above, for reference:
| stable siRNA reporter change | miRNA reporter change | stable assay Renilla, run 1 (luminescence) | stable assay firefly, run 1 (luminescence) | Target gene | dsRNA |
| --- | --- | --- | --- | --- | --- |
| – | – | 6586 | 4.32e5 | mei-P22 | DRSC11366 |
| – | – | 8857 | 3.39e5 | Adss | DRSC14162 |
| – | – | 6430 | 3.84e5 | Obp83cd | DRSC12267 |
| – | – | 6283 | 4.16e5 | CG17959 | DRSC18142 |
| – | – | 10458 | 3.82e5 | CG13630 | DRSC14631 |
| – | – | 18777 | 1.28e6 | NimB1 | DRSC01880 |
| – | – | 9377 | 3.61e5 | CG15093 | DRSC06522 |
| – | – | 7867 | 4.87e5 | His3.3A | DRSC03343 |
| – | – | 6607 | 4.47e5 | CG11262 | DRSC09831 |
